According to patent publication US9462809B2 (priority 2012, dated 2016):
Read-outs that look alike come from different tables or passages of the source. Some entries share one result that the patent states for a list of compounds.

Assays:
Type in all cases: in vivo
Septoria tritici = assay: Preventative control of leaf blotch on wheat caused by Septoria tritici (Use Example 2); conditions: wheat seedlings sprayed with 250 ppm, inoculated the following day, assessed after 4 weeks; untreated plants 92%
Puccinia recondita = assay: Preventative control of brown rust on wheat caused by Puccinia recondita (Use Example 3); conditions: wheat seedlings sprayed with 250 ppm, inoculated the next day, cultivated 6 days; untreated plants 86%
Phakopsora pachyrhizi = assay: Protective control of soy bean rust on soy beans caused by Phakopsora pachyrhizi (Use Example 4); conditions: soy bean seedlings sprayed with 250 ppm, inoculated after 1 day, cultivated fourteen days; untreated plants 94%
Phytophthora infestans [1] = conditions: tomato plants sprayed with 250 ppm, inoculated the next day, assessed after 6 days; untreated plants 84%
Phytophthora infestans [2] = conditions: tomato plants sprayed with 250 ppm, inoculated after seven days, kept 6 days; untreated plants 67%

Row | Compound | diseased leaf area (Septoria tritici) | diseased leaf area (Puccinia recondita) | diseased leaf area (Phakopsora pachyrhizi) | diseased leaf area (Phytophthora infestans [1]) | diseased leaf area (Phytophthora infestans [2])
1 | FC(F)(F)c1ccnc(Oc2ccc(C#CCCNc3ncnc(Cl)c3Cl)cc2)c1 [I-1] | at most 20% | at most 20% |  |  | 
2 | CCc1ncnc(NCCC#Cc2ccc(Oc3cc(C(F)(F)F)ccn3)cc2)c1Cl [I-3] | at most 20% | at most 20% |  |  | 
3 | Cc1ncnc(NC(C)CC#Cc2ccc(Oc3cc(C(F)(F)F)ccn3)cc2)c1Cl (centres unmarked) [I-4] | at most 20% | at most 20% | at most 15% |  | 
4 | CCc1ncnc(NC(C)CC#Cc2ccc(Oc3cc(C(F)(F)F)ccn3)cc2)c1Cl (centres unmarked) [I-5] | at most 20% | at most 20% |  | at most 20% | 
5 | CC(CC#Cc1ccc(Oc2cc(C(F)(F)F)ccn2)cc1)Nc1ncnc(Cl)c1Cl (centres unmarked) [I-6] |  | at most 20% |  |  | 
6 | Fc1cc(Cl)c(F)c2c(NCCC#Cc3ccc(Oc4cc(C(F)(F)F)ccn4)cc3)ncnc12 [I-7] | at most 20% |  |  |  | 
7 | Fc1ccc(F)c2c(NCCC#Cc3ccc(Oc4cc(C(F)(F)F)ccn4)cc3)ncnc12 [I-8] | at most 20% | at most 20% |  |  | 
8 | CC(CC#Cc1ccc(Oc2cc(C(F)(F)F)ccn2)cc1)Nc1ncnc2c(F)ccc(F)c12 (centres unmarked) [I-9] | at most 20% | at most 20% | at most 15% |  | 
9 | CC(CC#Cc1ccc(Oc2cc(C(F)(F)F)ccn2)cc1)Nc1ncnc2c(F)cc(F)c(F)c12 (centres unmarked) [I-10] | at most 20% |  | at most 15% |  | 
10 | CC(F)c1ncnc(NCCC#Cc2ccc(Oc3cc(C(F)(F)F)ccn3)cc2)c1Cl (centres unmarked) [I-11] |  | at most 20% |  | at most 20% | 
11 | CC(CC#Cc1ccc(Oc2cc(C(F)(F)F)ccn2)cc1)Nc1ncnc(C(C)F)c1Cl (centres unmarked) [I-12] |  | at most 20% |  |  | 
12 | CC(CC#Cc1ccc(Oc2cc(C(F)(F)F)ccn2)cc1)Nc1ncnc2cnn(C)c12 (centres unmarked) [I-13] | at most 20% | at most 20% |  |  | 
13 | CC(CC#Cc1ccc(Oc2cc(C(F)(F)F)ccn2)cc1)Nc1ncnc2c(F)cccc12 (centres unmarked) [I-14] | at most 20% | at most 20% |  | at most 20% | 
14 | Cc1cccc2ncnc(NC(C)CC#Cc3ccc(Oc4cc(C(F)(F)F)ccn4)cc3)c12 (centres unmarked) [I-15] | at most 20% | at most 20% |  |  | 
15 | Cc1c(Cl)ncnc1NC(C)CC#Cc1ccc(Oc2cc(C(F)(F)F)ccn2)cc1 (centres unmarked) [I-16] | at most 20% |  |  |  | 
16 | Cc1nc(C)c(Cl)c(NC(C)CC#Cc2ccc(Oc3cc(C(F)(F)F)ccn3)cc2)n1 (centres unmarked) [I-17] | at most 20% | at most 20% |  |  | 
17 | CC(CC#Cc1ccc(Oc2cc(C(F)(F)F)ccn2)cc1)Nc1ncnc2scnc12 (centres unmarked) [I-19] | at most 20% | at most 20% |  |  | 
18 | COc1cncnc1NC(C)CC#Cc1ccc(Oc2cc(C(F)(F)F)ccn2)cc1 (centres unmarked) [I-20] | at most 20% | at most 20% | at most 15% | at most 20% | 
19 | Cc1nc(Cl)c(Cl)c(NC(C)CC#Cc2ccc(Oc3cc(C(F)(F)F)ccn3)cc2)n1 (centres unmarked) [I-21] | at most 20% | at most 20% |  |  | 
20 | CC(CC#Cc1ccc(Oc2cc(C(F)(F)F)ccn2)cc1F)Nc1ncnc(C(C)F)c1Cl (centres unmarked) [I-23] | at most 20% | at most 20% |  | at most 20% | 

Row | Compound | diseased leaf area (Septoria tritici) | diseased leaf area (Puccinia recondita) | diseased leaf area (Phakopsora pachyrhizi) | diseased leaf area (Phytophthora infestans [1]) | diseased leaf area (Phytophthora infestans [2])
21 | CC(CC#Cc1ccc(Oc2cc(C(F)(F)F)ccn2)cc1F)Nc1ncnc(Cl)c1Cl (centres unmarked) [I-24] | at most 20% | at most 20% |  |  | 
22 | CC(F)c1ncnc(NCCC#Cc2ccc(Oc3cc(C(F)(F)F)ccn3)cc2F)c1Cl (centres unmarked) [I-25] | at most 20% | at most 20% |  |  | 
23 | Fc1cc(Oc2cc(C(F)(F)F)ccn2)ccc1C#CCCNc1ncnc(Cl)c1Cl [I-26] | at most 20% | at most 20% |  |  | 
24 | Fc1cc(Oc2cc(C(F)(F)F)ccn2)ccc1C#CCCNc1ncnc2scnc12 [I-28] | at most 20% | at most 20% |  |  | 
25 | CC(CC#Cc1ccc(Oc2cncc(C(F)(F)F)c2)cc1)Nc1ncnc(Cl)c1F (centres unmarked) [I-30] | at most 20% |  | at most 15% |  | 
26 | CC(CC#Cc1ccc(Oc2cc(C(F)(F)F)ccn2)cc1)Nc1nc(Cl)nc(Cl)c1Cl (centres unmarked) [I-31] | at most 20% |  | at most 15% | at most 20% | 
27 | CCOC(=O)c1c(CC)ncnc1NC(C)CC#Cc1ccc(Oc2cc(C(F)(F)F)ccn2)cc1 (centres unmarked) [I-32] | at most 20% |  |  |  | 
28 | CC(CC#Cc1ccc(Oc2cc(C(F)(F)F)ccn2)cc1)Nc1ncnc2cccnc12 (centres unmarked) [I-34] | at most 20% | at most 20% |  | at most 20% | 
29 | COc1ncc(F)c(NC(C)CC#Cc2ccc(Oc3cc(C(F)(F)F)ccn3)cc2)n1 (centres unmarked) [I-38] | at most 20% |  |  |  | 
30 | CC(CC#Cc1ccc(Oc2cc(C(F)(F)F)ccn2)cc1)Nc1ncnc(F)c1Br (centres unmarked) [I-40] | at most 20% |  |  |  | 
31 | Cc1nc(Cl)c(C)c(NC(C)CC#Cc2ccc(Oc3cc(C(F)(F)F)ccn3)cc2)n1 (centres unmarked) [I-45] | at most 20% | at most 20% |  |  | at most 20%
32 | CC(CC#Cc1ccc(Oc2cc(C(F)(F)F)ccn2)cc1)Nc1ncnc(F)c1F (centres unmarked) [I-46] | at most 20% | at most 20% | at most 15% |  | 
33 | CC(CC#Cc1ccc(Oc2cccc(C(F)(F)F)n2)cc1)Nc1ncnc(C(C)F)c1Cl (centres unmarked) [I-49] | at most 20% | at most 20% | at most 15% |  | at most 20%
34 | CC(CC#Cc1ccc(Oc2ccnc(C(F)(F)F)c2)cc1)Nc1ncnc(Cl)c1Cl (centres unmarked) [I-51] | at most 20% | at most 20% | at most 15% |  | 
35 | CC(CC#Cc1ccc(Oc2ccc(C(F)(F)F)cn2)cc1)Nc1ncnc(Cl)c1Cl (centres unmarked) [I-52] | at most 20% | at most 20% | at most 15% |  | 
36 | CC(CC#Cc1ccc(Oc2cccc(C(F)(F)F)n2)cc1)Nc1ncnc(Cl)c1Cl (centres unmarked) [I-53] | at most 20% |  |  |  | 
37 | CC(CC#Cc1ccc(Oc2ncc(Cl)cc2Cl)cc1)Nc1ncnc(Cl)c1Cl (centres unmarked) [I-54] | at most 20% | at most 20% |  |  | 
38 | Cc1c(Cl)ncnc1NC(C)CC#Cc1ccc(Oc2ccnc(C(F)(F)F)c2)cc1 (centres unmarked) [I-55] | at most 20% |  | at most 15% |  | 
39 | Cc1c(Cl)ncnc1NC(C)CC#Cc1ccc(Oc2cccc(C(F)(F)F)n2)cc1 (centres unmarked) [I-57] | at most 20% | at most 20% |  |  | 
40 | COc1c(Cl)ncnc1NC(C)CC#Cc1ccc(Oc2ccnc(C(F)(F)F)c2)cc1 (centres unmarked) [I-58] | at most 20% | at most 20% | at most 15% |  | 

Row | Compound | diseased leaf area (Septoria tritici) | diseased leaf area (Puccinia recondita) | diseased leaf area (Phakopsora pachyrhizi) | diseased leaf area (Phytophthora infestans [1]) | diseased leaf area (Phytophthora infestans [2])
41 | COc1c(Cl)ncnc1NC(C)CC#Cc1ccc(Oc2ncc(Cl)cc2Cl)cc1 (centres unmarked) [I-61] | at most 20% |  |  |  | 
42 | Cc1nc(Cl)nc(NC(C)CC#Cc2ccc(Oc3cc(C(F)(F)F)ccn3)cc2)c1Cl (centres unmarked) [I-62] | at most 20% | at most 20% | at most 15% |  | 
43 | COc1nc(C)c(Cl)c(NC(C)CC#Cc2ccc(Oc3cc(C(F)(F)F)ccn3)cc2)n1 (centres unmarked) [I-63] | at most 20% |  |  |  | 
44 | CC(CC#Cc1ccc(Oc2cc(C(F)(F)F)ccn2)cc1)Nc1ncnc(Cl)c1C#N (centres unmarked) [I-64] | at most 20% | at most 20% | at most 15% |  | 
45 | Cc1nc(Cl)cc(NC(C)CC#Cc2ccc(Oc3cc(C(F)(F)F)ccn3)cc2)n1 (centres unmarked) [I-68] |  |  | at most 15% |  | 
46 | CCc1c(Cl)ncnc1NC(C)CC#Cc1ccc(Oc2cc(C(F)(F)F)ccn2)cc1 (centres unmarked) [I-69] | at most 20% | at most 20% | at most 15% |  | 
47 | COCc1ncnc(NC(C)CC#Cc2ccc(Oc3cc(C(F)(F)F)ccn3)cc2)c1OC (centres unmarked) [I-70] |  |  |  | at most 20% | at most 20%
48 | CC(CC#Cc1ccc(Oc2ccc(Cl)cn2)cc1)Nc1ncnc2c(F)ccc(F)c12 (centres unmarked) [I-71] |  |  | at most 15% | at most 20% | 
49 | CC(CC#Cc1ccc(Oc2cc(C(F)(F)F)ccn2)cc1)Nc1ncnc2snnc12 (centres unmarked) [I-72] | at most 20% |  |  |  | 
50 | Cc1ncnc(NC(C)CC#Cc2ccc(Oc3cc(C(F)(F)F)ccn3)cc2)c1C#N (centres unmarked) [I-73] |  | at most 20% | at most 15% |  | 
51 | CC(CC#Cc1cccc(Oc2ccnc(C(F)(F)F)c2)c1)Nc1ncnc(Cl)c1Cl (centres unmarked) [I-75] | at most 20% |  |  |  | 
52 | COc1nc(Cl)cc(NC(C)CC#Cc2ccc(Oc3cc(C(F)(F)F)ccn3)cc2)n1 (centres unmarked) [I-76] | at most 20% |  |  |  | 
53 | CC(CC#Cc1ccc(Oc2ccnc(C(F)(F)F)c2)cc1)Nc1ncnc(C(C)F)c1Cl (centres unmarked) [I-77] |  |  | at most 15% |  | 
54 | CC(CC#Cc1ccc(Oc2ccc(Cl)cn2)cc1)Nc1ncnc(Cl)c1Cl (centres unmarked) [I-78] |  |  |  |  | at most 20%
55 | C=Cc1c(Cl)ncnc1NC(C)CC#Cc1ccc(Oc2cc(C(F)(F)F)ccn2)cc1 (centres unmarked) [I-79] |  |  |  | at most 20% | 
56 | Cc1c(Cl)ncnc1NC(C)CC#Cc1ccc(Oc2ncnc(Cl)c2C)cc1 (centres unmarked) [I-80] |  |  | at most 15% |  | 
57 | COc1c(Cl)ncnc1NC(C)CC#Cc1ccc(Oc2ncnc(Cl)c2OC)cc1 (centres unmarked) [I-81] |  |  |  | at most 20% | 
58 | COC(=O)c1ncnc(NC(C)CC#Cc2ccc(Oc3ncnc(C(=O)OC)c3C)cc2)c1C (centres unmarked) [I-82] |  |  | at most 15% | at most 20% | 
